Measurements published in PubChem BioAssay AID504834 (National Center for Advancing Translational Sciences (NCATS), 2011).
The whole screen tested about 320,000 compounds, of which about 22,000 (6.9%) were called active. Inconclusive results, whose numbers are uncertain, are shown with a selection of clear calls. The call rests on the fitted dose curve; in most records, active means well fitted inhibition curve with a large enough effect; inconclusive means small, poorly fitted or top-dose-only effect, or another doubt; inactive means no such curve, though single readings can be large or run the other way. Potencies of inconclusive entries are doubtful fits and often do not repeat.

experiment: Primary qHTS for delayed death inhibitors of the malarial parasite plastid, 96 hour incubation; settings: P. falciparum luciferase reporter growth; series mostly up to 28.7 µM
Summary of the method: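 Parasite growth measured via integrated firefly luciferase reporter in P. falciparum. Infected erythrocytes at 2% hematocrit, 0.05% parasitemia final were treated 96 hours at 37 C under 5% CO2, and luminescence was read.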
Potency means the concentration at half of the fitted maximal effect.

Row | SMILES | Potency
1 | Cc1ccccc1S(=O)(=O)Cc1ccc(C(=O)NCCCN(C)Cc2ccccc2)o1 | inconclusive: 1.85 µM [inhibitor, partial curve, poor fit]
2 | CON(c1nc(N(C)C)nc(N(C)C)n1)S(=O)(=O)c1ccccc1Cl | inconclusive: 2.94 µM [inhibitor, full curve, poor fit]
3 | COC(=O)c1[nH]c2ccc(C)cc2c1NC(=O)CN1CCCc2ccccc21 | active: 2.33 µM
4 | CCOC(=O)C1CCN(C(=O)CN(c2ccc(Oc3ccccc3)cc2)S(C)(=O)=O)CC1 | inconclusive: 13.1 µM [inhibitor, single point]
5 | COc1ccc2ccccc2c1-c1sc(Nc2ccccc2)n[n+]1-c1ccc(F)cc1 | inconclusive: 4.15 µM [inhibitor, partial curve, poor fit]
6 | CC(C)C[C@H](NC(=O)c1nc[nH]c1C(=O)N[C@@H](CCCCNC(=O)OC(C)(C)C)C(=O)OC(C)(C)C)C(=O)OC(C)(C)C | active: 2.08 µM
7 | CCCNC(=O)c1[nH]c(C)c(C(=O)OCC)c1C | inactive
8 | C=CCNC(=S)Nc1ccc(OC)c(S(=O)(=O)N2CCOCC2)c1 | inactive
9 | CC1(C(=O)OCC(=O)N2c3ccccc3Sc3ccccc32)CC1(Cl)Cl (stereo not given) | inconclusive: 18.5 µM [inhibitor, single point]
10 | COc1ccc(OC)c(NC(=S)N2CCN(Cc3ccccc3)CC2)c1 | inactive
11 | Cc1oc(-c2cccc(F)c2)nc1CN1CCCCC1CCc1ccccn1 (stereo not given) | inconclusive: 14.7 µM [inhibitor, partial curve, poor fit]
12 | Cc1ccccc1-c1ccc(CN2CCN(C)C(CCO)C2)cc1 (stereo not given) | inconclusive: 16.5 µM [inhibitor, single point]
13 | CCC1CCC(C(=O)NC(CCSC)C(=O)NCCN(CC(C)C)CC(C)C)CC1 (stereo not given) | active: 14.7 µM
14 | COc1cccc(-n2c(=O)c3sccc3n(CC(=O)NCC3CCCO3)c2=O)c1 (stereo not given) | inactive
15 | Cc1ccc(-n2nc3c(N4CCC(C(=O)N5CCC(C(N)=O)CC5)CC4)nnc(C)c3c2C)cc1 | inactive
16 | COc1cc([N+](=O)[O-])ccc1NC(=O)/C=C\C(=O)O | inactive
17 | CCN(CC)C(=O)CSc1nc(N)c2c3c(sc2n1)CC(C)CC3 (stereo not given) | inconclusive: 18.5 µM [inhibitor, single point]
18 | CCOC(=O)c1c(C)[nH]c(C(=O)N/N=C\c2ccccc2Cl)c1C | active: 9.28 µM
19 | Cc1cc(NS(=O)(=O)c2ccc(NC(=O)CCc3ccccc3)cc2)no1 | inconclusive: 11.7 µM [inhibitor, single point]
20 | CCN(CC)S(=O)(=O)c1ccc(N2CCCCC2)c(NC(=O)/C=C/c2ccc(OC)c(OC)c2)c1 | active: 10.4 µM

Shown with tabs: part of the list above
Row	SMILES	Potency
10	COc1ccc(OC)c(NC(=S)N2CCN(Cc3ccccc3)CC2)c1	inactive
11	Cc1oc(-c2cccc(F)c2)nc1CN1CCCCC1CCc1ccccn1 (stereo not given)	inconclusive: 14.7 µM [inhibitor, partial curve, poor fit]
